Data published in the supplement of paper PMC4604168 (melanoma cell lines).
The other results are listed elsewhere or left out. Single values are uncertain, as repeats are few or missing.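 The apoptosis fraction was the count of cleaved-PARP antibody-stained nuclei relative to all DNA-stained nuclei, imaged in 1,536-well plates. Screening doses were set so most cells survived, and baseline and induced cleaved-PARP levels vary greatly across cell lines.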

Tested on: A375
Assay: cleaved PARP positive nuclei fraction relative to DMSO control; melanoma cells; higher = more apoptosis
Settings: library dose: low library concentration; 72 h

SMILES	cleaved PARP positive nuclei fraction
O=C(/C=C/c1cccnc1)NCCCCC1CCN(C(=O)c2ccccc2)CC1 + CC(C)(C)c1cnc(CSc2cnc(NC(=O)C3CCNCC3)s2)o1 [SNS-032] (first compound 0.01 µM, partner dose 0.01 µM)	104%
Cc1cn(-c2cc(NC(=O)c3ccc(C)c(Nc4nccc(-c5cccnc5)n4)c3)cc(C(F)(F)F)c2)cn1 [nilotinib] + O=C(CCCCCCC(=O)Nc1ccccc1)NO [vorinostat] (first compound 0.2 µM, partner dose 0.08 µM)	70.5%
N#CC[C@H](C1CCCC1)n1cc(-c2ncnc3[nH]ccc23)cn1 [ruxolitinib] + O=C(O)c1ccc(-c2c[nH]c3ncc(-c4ccccc4)cc23)cc1C1CCCC1 [GSK650394] (first compound 1 µM, partner dose 0.16 µM)	71.8%
O=C(Nc1cc(C(F)(F)F)cc(C(F)(F)F)c1)c1cc(Cl)ccc1O + CO[C@@H]1[C@H](N(C)C(=O)c2ccccc2)C[C@H]2O[C@]1(C)n1c3ccccc3c3c4c(c5c6ccccc6n2c5c31)C(=O)NC4 [Midostaurin] (first compound 0.016 µM, partner dose 0.08 µM)	73.7%
N#CC[C@H](C1CCCC1)n1cc(-c2ncnc3[nH]ccc23)cn1 [ruxolitinib] + Cc1ccc(NC(=O)c2cccc(N(C)C)c2)cc1NC(=O)c1ccc(O)cc1 [ZM336372] (first compound 1 µM, partner dose 2 µM)	125%
N#CC[C@H](C1CCCC1)n1cc(-c2ncnc3[nH]ccc23)cn1 [ruxolitinib] + CC1(C)NC(=O)N(c2ccc([N+](=O)[O-])c(C(F)(F)F)c2)C1=O [nilutamide] (first compound 1 µM, partner dose 1 µM)	78.7%
CC[C@]1(O)C[C@H]2CN(CCc3c([nH]c4ccccc34)[C@@](C(=O)OC)(c3cc4c(cc3OC)N(C=O)[C@H]3[C@@](O)(C(=O)OC)[C@H](OC(C)=O)[C@]5(CC)C=CCN6CC[C@]43[C@@H]65)C2)C1 [vincristine] + O=C(Nc1cccc(Cl)c1)Nc1ncc(CCNc2ncnc3ccsc23)s1 [SNS314] (first compound 0.0001 µM, partner dose 0.0008 µM)	247%
Cc1cn(-c2cc(NC(=O)c3ccc(C)c(Nc4nccc(-c5cccnc5)n4)c3)cc(C(F)(F)F)c2)cn1 [nilotinib] + CC(C)(C)c1cnc(CSc2cnc(NC(=O)C3CCNCC3)s2)o1 [SNS-032] (first compound 0.2 µM, partner dose 0.01 µM)	101%
COc1cc([C@@H]2c3cc4c(cc3[C@@H](O[C@@H]3O[C@@H]5CO[C@@H](C)O[C@H]5[C@H](O)[C@H]3O)[C@H]3COC(=O)[C@H]23)OCO4)cc(OC)c1O [etoposide] + NC(=O)Nc1cc(-c2cccc(F)c2)sc1C(=O)N[C@H]1CCCNC1 [AZD7762] (first compound 0.02 µM, partner dose 0.02 µM)	710%
Cc1cc(Nc2cc(N3CCN(C)CC3)nc(Sc3ccc(NC(=O)C4CC4)cc3)n2)n[nH]1 [Tozasertib] + Cn1cncc1[C@@](N)(c1ccc(Cl)cc1)c1ccc2c(c1)c(-c1cccc(Cl)c1)cc(=O)n2C [tipifarnib] (first compound 0.006 µM, partner dose 0.01 µM)	37.9%
Cc1ccc(Nc2nccc(N(C)c3ccc4c(C)n(C)nc4c3)n2)cc1S(N)(=O)=O [Pazopanib] + Cn1cncc1[C@@](N)(c1ccc(Cl)cc1)c1ccc2c(c1)c(-c1cccc(Cl)c1)cc(=O)n2C [tipifarnib] (first compound 0.4 µM, partner dose 0.01 µM)	213%
Cc1cc(Nc2cc(N3CCN(C)CC3)nc(Sc3ccc(NC(=O)C4CC4)cc3)n2)n[nH]1 [Tozasertib] + Cc1ccc(NC(=O)c2cccc(N(C)C)c2)cc1NC(=O)c1ccc(O)cc1 [ZM336372] (first compound 0.006 µM, partner dose 2 µM)	214%
CC[C@]1(O)C[C@H]2CN(CCc3c([nH]c4ccccc34)[C@@](C(=O)OC)(c3cc4c(cc3OC)N(C=O)[C@H]3[C@@](O)(C(=O)OC)[C@H](OC(C)=O)[C@]5(CC)C=CCN6CC[C@]43[C@@H]65)C2)C1 [vincristine] + CC1(C)NC(=O)N(c2ccc([N+](=O)[O-])c(C(F)(F)F)c2)C1=O [nilutamide] (first compound 0.0001 µM, partner dose 1 µM)	114%
N#CC[C@H](C1CCCC1)n1cc(-c2ncnc3[nH]ccc23)cn1 [ruxolitinib] + CO[C@@H]1[C@H](N(C)C(=O)c2ccccc2)C[C@H]2O[C@]1(C)n1c3ccccc3c3c4c(c5c6ccccc6n2c5c31)C(=O)NC4 [Midostaurin] (first compound 1 µM, partner dose 0.08 µM)	209%
CCCCCCCCCCCCCCCCCCOP(=O)([O-])OC1CC[N+](C)(C)CC1 [Perifosine] + COc1cc2c(Oc3ccc4[nH]c(C)cc4c3F)ncnc2cc1OCCCN1CCCC1 [cediranib] (first compound 0.4 µM, partner dose 0.4 µM)	243%
N#CC[C@H](C1CCCC1)n1cc(-c2ncnc3[nH]ccc23)cn1 [ruxolitinib] + COc1cc2c(Oc3ccc4[nH]c(C)cc4c3F)ncnc2cc1OCCCN1CCCC1 [cediranib] (first compound 1 µM, partner dose 0.4 µM)	133%
O=C(/C=C/c1cccnc1)NCCCCC1CCN(C(=O)c2ccccc2)CC1 + O=C(O)c1ccc(-c2c[nH]c3ncc(-c4ccccc4)cc23)cc1C1CCCC1 [GSK650394] (first compound 0.01 µM, partner dose 0.16 µM)	70.6%
Cc1cc(Nc2cc(N3CCN(C)CC3)nc(Sc3ccc(NC(=O)C4CC4)cc3)n2)n[nH]1 [Tozasertib] + NCC(=O)Nc1ccc(-n2nc(C(F)(F)F)cc2-c2ccc3c(ccc4ccccc43)c2)cc1 [OSU03012] (first compound 0.006 µM, partner dose 1 µM)	963%
Cc1cn(-c2cc(NC(=O)c3ccc(C)c(Nc4nccc(-c5cccnc5)n4)c3)cc(C(F)(F)F)c2)cn1 [nilotinib] + CO[C@@H]1[C@H](N(C)C(=O)c2ccccc2)C[C@H]2O[C@]1(C)n1c3ccccc3c3c4c(c5c6ccccc6n2c5c31)C(=O)NC4 [Midostaurin] (first compound 0.2 µM, partner dose 0.08 µM)	138%
Cc1ccc(Nc2nccc(N(C)c3ccc4c(C)n(C)nc4c3)n2)cc1S(N)(=O)=O [Pazopanib] + CN(NC(=O)CC(=O)NN(C)C(=S)c1ccccc1)C(=S)c1ccccc1 [STA4783] (first compound 0.4 µM, partner dose 0.006 µM)	1900%
COc1cc([C@@H]2c3cc4c(cc3[C@@H](O[C@@H]3O[C@@H]5CO[C@@H](C)O[C@H]5[C@H](O)[C@H]3O)[C@H]3COC(=O)[C@H]23)OCO4)cc(OC)c1O [etoposide] + Cc1ccc(NC(=O)c2cccc(N(C)C)c2)cc1NC(=O)c1ccc(O)cc1 [ZM336372] (first compound 0.02 µM, partner dose 2 µM)	73.1%
O=C(/C=C/c1cccnc1)NCCCCC1CCN(C(=O)c2ccccc2)CC1 + CN(NC(=O)CC(=O)NN(C)C(=S)c1ccccc1)C(=S)c1ccccc1 [STA4783] (first compound 0.01 µM, partner dose 0.006 µM)	10600%

Retrieved one by one from the list above:
SMILES	cleaved PARP positive nuclei fraction
O=C(/C=C/c1cccnc1)NCCCCC1CCN(C(=O)c2ccccc2)CC1 + CC(C)(C)c1cnc(CSc2cnc(NC(=O)C3CCNCC3)s2)o1 [SNS-032] (first compound 0.01 µM, partner dose 0.01 µM)	104%
Cc1cn(-c2cc(NC(=O)c3ccc(C)c(Nc4nccc(-c5cccnc5)n4)c3)cc(C(F)(F)F)c2)cn1 [nilotinib] + CC(C)(C)c1cnc(CSc2cnc(NC(=O)C3CCNCC3)s2)o1 [SNS-032] (first compound 0.2 µM, partner dose 0.01 µM)	101%
